{"source": "paper PMC4228979", "about": "“Conserved cis-regulatory modules in promoters of genes encoding wheat high-molecular-weight glutenin subunits”", "biological_target": "T1, His-SPA (Storage Protein Activator, bZIP) (UniProt A0A9R1IS55)", "T1 sequence (looked up, limits assumed)": "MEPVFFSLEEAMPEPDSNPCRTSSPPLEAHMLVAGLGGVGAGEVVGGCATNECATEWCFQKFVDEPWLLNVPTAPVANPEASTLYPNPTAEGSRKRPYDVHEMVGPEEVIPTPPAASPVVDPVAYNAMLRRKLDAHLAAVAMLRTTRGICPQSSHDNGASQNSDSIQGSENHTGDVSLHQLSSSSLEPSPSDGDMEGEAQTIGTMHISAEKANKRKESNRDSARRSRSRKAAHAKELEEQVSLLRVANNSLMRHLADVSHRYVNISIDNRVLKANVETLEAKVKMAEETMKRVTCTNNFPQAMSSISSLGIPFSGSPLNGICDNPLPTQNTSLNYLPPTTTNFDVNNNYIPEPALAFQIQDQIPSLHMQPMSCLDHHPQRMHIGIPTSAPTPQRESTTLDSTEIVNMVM", "experiment": "EMSA", "settings": "10 mM Tris pH 7.5, 100 mM KCl, 2 mM DTT, 2 mM EDTA, 10% glycerol, 0.05% nonyl phenoxypolyethoxylethanol, 0.5 mM PMSF, 100 ng/uL poly(dI.dC), 250 ng/uL fish sperm DNA; recombinant protein; protein details: His tag (pDEST17); label: 3' biotin on each strand", "note": "For at least one entry, the source does not settle the construct or the ends of the probe. A negative result means that nothing was seen under these conditions. Tags and fusion partners may be left off the protein sequences shown. Weaker means in comparison with the reference protein, sequence or condition of that experiment."}
{"sequence": "ATAGATGTTGTGAGTCATTGGATAG (double strand) [GLM1 (-647)]", "values": [{"measurement": "binding result", "value": "binds more weakly"}]}
{"sequence": "ATAGATATTTTTATTAAGCATGGA (double strand) [glm2]", "values": [{"measurement": "binding result", "value": "no binding"}]}
{"sequence": "GCCCATTACGTGGCTTTAGCAGACC (double strand) [G-box (-227)]", "values": [{"measurement": "binding result", "value": "binds more weakly"}]}
